Primary screen of a compound library

Protein sequences, listed by entry. Tags and fused reporters are not part of them.
UniProt E9BF75, entry or part of it: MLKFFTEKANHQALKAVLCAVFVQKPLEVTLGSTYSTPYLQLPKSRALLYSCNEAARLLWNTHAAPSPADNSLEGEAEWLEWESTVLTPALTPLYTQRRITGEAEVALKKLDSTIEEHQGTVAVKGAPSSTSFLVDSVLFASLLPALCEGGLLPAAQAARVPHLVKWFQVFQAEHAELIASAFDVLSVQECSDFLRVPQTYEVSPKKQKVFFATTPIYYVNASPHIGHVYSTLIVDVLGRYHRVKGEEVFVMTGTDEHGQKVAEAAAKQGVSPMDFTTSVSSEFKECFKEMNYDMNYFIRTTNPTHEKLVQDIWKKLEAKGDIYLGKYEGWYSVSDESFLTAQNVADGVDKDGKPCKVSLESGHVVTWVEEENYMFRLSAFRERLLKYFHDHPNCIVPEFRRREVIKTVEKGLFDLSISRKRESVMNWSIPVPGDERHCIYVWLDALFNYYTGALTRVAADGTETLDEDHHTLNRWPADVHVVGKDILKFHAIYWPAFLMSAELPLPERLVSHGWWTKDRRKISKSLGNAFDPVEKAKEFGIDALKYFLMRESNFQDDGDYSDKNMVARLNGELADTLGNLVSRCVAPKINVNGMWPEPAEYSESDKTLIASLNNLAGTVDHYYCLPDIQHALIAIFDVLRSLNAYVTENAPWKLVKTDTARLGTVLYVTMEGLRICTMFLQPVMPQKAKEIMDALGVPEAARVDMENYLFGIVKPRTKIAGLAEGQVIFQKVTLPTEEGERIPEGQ

From ChEMBL document CHEMBL3988442, “University of Dundee, Small-Polar-MMV Screening Library” (2021).

All values are in %.
The record does not define 0% and 100%; most values in the screen are far below 50% and negative numbers occur (in some assays of this library far below -100).
The compounds are a random part of those screened.

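Primary screen of methionyl-tRNA synthetase; the read-out is not stated. Target: Methionyl-tRNA synthetase (putative), Leishmania donovani (UniProt E9BF75). The test concentration is not given. The values are filed as inhibition. Size under these conditions: about 68,000 compounds, about 24 of them at 50% or above in at least one test.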

SMILES | inhibition
CCC(C)CN1CCC(n2cc(C3CCCC3)nn2)CC1 (stereo not drawn) | 11.17
COc1cc(NC(=O)NC2CCCC2)ccc1N1CCOC1=O | 10.65
NC(=O)Cc1ccc(OCc2noc(C(=O)N3CCCC3)n2)cc1 | 16.13
Cc1cnc(N2CCCC3(CCCN3CC(=O)N(C)C)C2)nc1 (stereo not drawn) | 8.901
CC(C)(C)OC(=O)N1CCN(c2nnc(Br)s2)CC1 | 5.391
CCS(=O)(=O)Cc1nnnn1-c1ccccc1 | 6.25
Cc1cs/c(=N\C(=O)c2c3c(nc4onc(C)c24)CCC3)[nH]1 | 14.92
c1ccc2nc(N3CCCC(Cn4cncn4)C3)cnc2c1 (stereo not drawn) | 14.21
N#CC(NC(=O)CCCOc1cccnc1)c1ccccc1Cl (stereo not drawn) | 12.89
CCN(Cc1cccc(Cl)c1)Cc1ncc(C(C)(C)C)o1 | 12.57
Cn1nccc1C1CCN(Cc2ccn(-c3ccccc3)n2)CC1 | 0.6211
Cn1cncc1-c1nnc([C@H]2CCN(Cc3ccc(CO)o3)C2)o1 | 1.017
Cc1cnn(CCNCc2cc(-c3ccccc3)no2)c1 | -32.3
COc1ccc2c(c1)NC(C1CCN(C(=O)C3CC3)CC1)NS2(=O)=O (stereo not drawn) | 9.574
CCS(=O)(=O)N1CCC2(COCc3cnc(N4CCOCC4)nc32)C1 (stereo not drawn) | 18.16
CCN1CCCCC1C(=O)N1CCC(OCCOC)CC1 (stereo not drawn) | 13.35
CCN(Cc1c(C)nn(CC)c1C)S(=O)(=O)c1cn(C)nc1C | 13.88
CC(C(=O)NCc1ccc(F)cc1)N(C)CCN1CCOCC1 (stereo not drawn) | 5.575
Cc1cc(=O)n(CCNC(=O)c2ccccc2Cl)cn1 | 13.28
Cn1cc(C2=NOC(C(=O)NC3(c4cccc(F)c4)CCCC3)C2)cn1 (stereo not drawn) | 6.231
Cc1ccc(NC2(C(=O)NCc3c(C)n[nH]c3C)CCCC2)cc1 | 9.091
Cc1ccc(CN2C[C@H](C(=O)N3CCCCO3)[C@@H]3CCO[C@@H]3C2)o1 | 12.7
CN(Cc1ccccn1)C(=O)CNC(=O)N1CCc2ccccc2C1 | 11.78
CN1CCN(C(=O)C2SCCc3sccc32)CC1 (stereo not drawn) | 9.341
NS(=O)(=O)CCNC(=O)c1cc2cccc(F)c2o1 | 12.64
O=C(Nc1cnc2n1CCCC2)c1cccc(NC(=O)C2CCCC2)c1 | 4.301
O=C(c1n[nH]cc1Br)N1CCOCC1 | 8.355
Cc1noc(C2CCCN(C(=O)c3cncc(Br)c3)C2)n1 (stereo not drawn) | 8.591
Cc1nc(C)n(CC2CCCN(CCOc3ccc(C#N)cc3)C2)n1 (stereo not drawn) | 11.55
Cc1cc(C(F)(F)F)n2nc(C3CCCN(S(C)(=O)=O)C3)cc2n1 (stereo not drawn) | 9.627
C=C(C)CN1CCCC(CNS(C)(=O)=O)C1 (stereo not drawn) | 9.561
NC[C@H]1[C@H]2CN(Cc3ccccc3)C[C@@H]12 | 15.82
CN(C)C(=O)COC[C@]12COC[C@H]1CN(Cc1ccoc1)C2 | 18.22
Cn1c(NCC(O)c2ccccc2F)c(C#N)c(=O)n(C)c1=O (stereo not drawn) | 28.45
CCOC(=O)N1CC(=O)N(CCc2ccccc2)CC(O)C1 (stereo not drawn) | 7.397
CCc1nnc(NC(=O)Cc2c(C)nc(C)[nH]c2=O)s1 | 11.05
Cc1[nH]ccc1C(=O)N1CCC(c2nnc(Cn3cccn3)n2C)CC1 | 17.5
CCOC(=O)NC1CCCN(Cc2ccc(-n3cncn3)c(C)c2)C1 (stereo not drawn) | 7.246
CC(C)NC(=O)N1CCC2(CC1)Cc1ccccc1CNC2=O | 7.692
FC(F)c1nnc2ccc(N3CCC4(CCCCC4)C3)nn12 | 20.42
Fc1cccc(N2CCCC3(C2)CN(c2ncccn2)CCO3)c1 (stereo not drawn) | 20.59
O=C(Nc1nncs1)c1ccc(-n2cnnn2)cc1 | 4.188
CN(C)C(=O)n1c(C(=O)NC(C)(C)CO)cc2c1c1ccccc1n2C | 4
CCNC(=O)N1CC2=CC(C)(C)COc3ccc(OC)c(c32)C1 | 7.397
Cc1nc(N2CCCC2)nc2c1CN(C(C)C)CC2 | 12.97
CC(C)Sc1ccc(N2CCN(Cc3ccccn3)CC2)nn1 | 23.08
O=C(c1cccnc1N1CCN(Cc2ccoc2)CC1)N1CCCCC1 | 13.38
CCC(=O)N1CCC(c2cc(Nc3ncccn3)nc(C)n2)C1 (stereo not drawn) | 16.18
CC(C)=CCN1CCN(Cc2ncc[nH]2)[C@H]2CS(=O)(=O)C[C@H]21 | 3.133
Cc1cnc(C(=O)N2CCCn3c(nc(CN(C)C)cc3=O)C2)cn1 | 11.11
CC(C)n1cnnc1CN(C)C(=O)c1ccccc1-n1cncn1 | 1.875
CN(C)CCCNC(=O)CNC(=O)N1CCc2c([nH]c3ccccc23)C1 | 4.564
CCCn1cc2c(C(F)F)cc(SCC(=O)O)nc2n1 | 8.919
CCN1CCC(Cn2ccc3ccc(C(=O)OC)cc3c2=O)C1 (stereo not drawn) | 10.7
Cc1cnc(N2CCC(c3ccccc3)CC2)nc1-c1ccnn1C | 8.052
O=C([C@@H]1C[C@H]2[C@H](CCN2Cc2nccs2)O1)N1CCOCC1 | 12.38
CN(CC(=O)Nc1ccncc1)C1CCCN(c2cccnn2)C1 (stereo not drawn) | 8.101
CCc1cnc(NCc2nc(CSC)no2)nc1 | -0.2786
CN(CC(=O)Nc1ccon1)S(=O)(=O)c1cc(Cl)ccc1Cl | 3.47
CC(=O)NCC[C@H]1CC(C)(C)Oc2ccccc21 | 6.553
COc1cc(C2CC(=O)Nc3c2nc2n3CCCC2)ccc1O (stereo not drawn) | 5.722
CCc1nc(CN(C)C(=O)C2CCC(=O)N(CC3CCCCC3)C2)no1 (stereo not drawn) | 6.145
O=C(NCCCOCC1CC1)Nc1cccnc1N1CCOCC1 | 17.14
COc1ccnc(N2CCN(CC(=O)N3CCOCC3)CC2)n1 | 11.81
CCNC(=O)c1ccoc1CN1c2ccccc2CC1C (stereo not drawn) | 16.5
Cn1cc(CN2CCC3(CC2)C(=O)Nc2ccccc23)cn1 | 9.343
Cc1cnn(CCC(=O)NC2CCc3nc(C)cn3C2)c1 (stereo not drawn) | 11.45
CC(=O)c1ccc(N2CCN(C(=O)NC(C)c3ccc(C)o3)CC2)cc1 (stereo not drawn) | 13.09
N#Cc1ccc(CNc2cccc(C(=O)N3CCOCC3)c2)cc1 | 6.267
Cc1nnc(NC(=O)NCc2cc(F)cc(F)c2)s1 | 11.02
COCCn1nc(C(=O)N2CCOCC2C)ccc1=O (stereo not drawn) | 8.844
CCc1cnc(CNC(=O)NCCCO)s1 | 21.59
CSc1cc2c(cc1NC(=O)N(C)Cc1cnn(C)c1)OCCO2 | 8.377
Cc1ocnc1C(=O)N1CC[C@@H](O)[C@@H](O)[C@H](N2CCC(F)(F)CC2)C1 | 14.12
CNC(=O)CN1CC[C@H]2CN(C(=O)c3ccccc3F)C[C@H]2C1 | 12.69
NS(=O)(=O)c1ccc(F)c(C(=O)NCCSC2CCCCC2)c1 | 7.711
CCN(C(=O)Nc1cc(C)on1)C(C)c1cccc(O)c1 (stereo not drawn) | 13.43
CCOc1ncccc1CNC(=O)NCC(O)c1ccccc1OC (stereo not drawn) | 9.859
CC(C)c1nnc(CN2CCN(CC(O)c3ccccc3)CC2)o1 (stereo not drawn) | 13.25
O=C1CCCN1Cc1ncn2c1CN(C(=O)Cc1ccccc1)CCC2 | 19.29
CCN(C(=O)Cc1ccc(NC(=O)NC2CC2)cc1)c1ccccc1 | 10.97
Cc1cnc2c(S(=O)(=O)NCC3CCN(C4CC4)C3)cccc2c1 (stereo not drawn) | 24.41
CC(C)c1nc(CN2CCCC2CN2CCCC2)cs1 (stereo not drawn) | 12.03
CN(C1CCCN(c2ccccn2)C1)S(=O)(=O)N1CCOCC1 (stereo not drawn) | 4.658
O=C(Cc1ccc2c(c1)CCO2)Nc1cccnc1-n1cncn1 | -61.59
CN(C)C(=O)NCc1cc2n(n1)CCN(C[C@H]1[C@@H]3CNC[C@@H]31)C2 | 11.96
CC(NC(=O)OC(C)(C)C)c1nnc(S(=O)(=O)Cc2ccc(Cl)cc2)o1 (stereo not drawn) | 14.36
CNS(=O)(=O)c1cccc(CNC(=O)NCC2CCOC2)c1 (stereo not drawn) | 7.216
O=C(C1CCS(=O)(=O)CC1)N1CCC(c2ccc(F)cc2)C1 (stereo not drawn) | 4.177
O=C(CC1CCCC1)N1C[C@H](OCc2ccncc2)[C@H]2OCCC[C@H]21 | 12.97
COCc1nnc(C(=O)N2CCCC(O)C2)o1 (stereo not drawn) | 15.76
COCCC(=O)N1CCC2(CN(Cc3cccc(Cl)c3)C2)C1 | 1.099
Cc1cc(C(=O)N[C@H]2COC[C@@H]2N2CCOCC2)c2ccc(F)cc2n1 | 10.07